To fix the notation:
B1: Ies4 (protein, UniProt Q08561 1-116)
chain: MSQESSVLSESQEQLANNPKIEDTSPPSANSRDNSKPVLPWDYKNKAIEIKSFSGYKVNFTGWIRRDVREERQRGSEFTASDVKGSDDKATRKKEPADEDPEVKQLEKEGEDGLDS
B2: Ies5 (protein, UniProt P40060 1-125)
chain: MPSKDPESVIDKEIRKISARNDELIKQDGTLKREYTTLLRKVSSVITVLNSIDDADTGSAETELPRLISQATVEKVPELKWYNDQISLITEKLEDDEDIEVPEELMDAYTLYKETPLLYNDTHTP
B3: Ies1 (protein, UniProt P43579 1-692)
chain: MGKRVYDPIHDTFQLREDNSDETKADSPMQSVKSGSQEEASPSSIQSETETVTTKSIPVIHEIEIDDKNDDDSTQSEEENTNILLNFEPSTVPEATGASTATGPVTTNTVRRKPKESNASKYNRHLKKPDGEPFNRKDIQFSFMQELLMDKRQIFTNVLKPLYKNSIVPINIDGDKLSINVTDKEYDARTFVFNDKLTFAQLYVLTIATSIKCSKILRDKLLLDQQVAFSTCVLALLVNIGRLNTTINFYLEMTSQLRTFHSVPVLQLHANDPKLLQDTPRLKSILKNLPWGNEQLSLMETYKKVDQNDGEVDTVNKFNIINMLFSICDNSGLIDKRFLSKYVEVESKAQEQDMVDEQNEVKETEAENEKQESKAAYATTLFDILDYSKYEPKDRSNILIWLLYIHLETNLSQEEVEESVRFFNGLEDGAPAGKFILRCTERSYDTDPEDELEFGANQRIKRREFMSKMEEGRKRERTNVTEVKKPSIGGDKSEEDGEGEDDKSEETVEETRSLLTPTPILESSSPMTLNRKKVTPQLPKVTPAAPTETEEEITSAAIIDKNDLNLTPLKKYNSSATVNKVDKLISLDLNKHVSENGKTQEEFLADLKKSQVPNRLKRRDIGLIKIFNEFEDIPVASVLGIRGKKRKKFKDNLLGFETDFMKNLGASKKVLLNKIERAEIDDEEATAMFKLE
B4: Nhp10 (protein, UniProt Q03435 1-203)
chain: MSVEEKKRRLEELKDQNVVLGLAIQRSRLSVKRLKLEYGVLLERLESRIELDPELNCEDPLPTLASFKQELLTKPFRKSKTKRHKVKERDPNMPKRPTNAYLLYCEMNKERIRQNGSLDVTRDLAEGWKNLNEQDRKPYYKLYSEDRERYQMEMEIYNKKISNIDADDDKEENEQKIKNNEEGSSTKVADSKGGEDGSLVSSN
B5: Arp5 (protein, UniProt P53946 1-755)
chain: MSSRDASLTPLKAVVIDDPPLRQTPEPFDEQSAYNPQSPIAIDFGSSKLRAGFVNHATPTHIFPNALTKFRDRKLNKNFTFVGNDTLLDQAVRSQSRSPFDGPFVTNWNLTEEILDYTFHHLGVVPDNGIPNPILLTERLATVQSQRTNWYQILFETYNVPGVTFGIDSLFSFYNYNPSGNKTGLVISCGHEDTNVIPVVDGAGILTDAKRINWGGHQAVDYLNDLMALKYPYFPTKMSYLQYETMYKDYCYVSRNYDEDIEKILTLENLDTNDVVVEAPFTEVLQPQKTEEELRIQAEKRKETGKRLQEQARLKRMEKLVQKQEEFEYFSKVRDQLIDEPKKKVLSVLQNAGFDDERDFKKYLHSLEQSLKKAQMVEAEDDSHLDEMNEDKTAQKFDLLDIADEDLNEDQIKEKRKQRFLKASQDARQKAKEEKERVAKEEEEKKLKEQQWRETDLNGWIKDKRLKLNKLIKRRKEKLKLRDEMKDRKSQVSQNRMKNLASLAEDNVKQGAKRNRHQATIDNDPNDTFGANDEDWLIYTDITQNPEAFEEALEYEYKDIVELERLLLEHDPNFTEEDTLEAQYDWRNSILHLFLRGPRPHDSENIHEQHQMHLNVERIRVPEVIFQPTMGGQDQAGICELSETILLKKFGSQPGKLSQTSIDMVNNVLITGGNAKVPGLKERIVKEFTGFLPTGTNITVNMSSDPSLDAWKGMAALARNEEQYRKTVISKKEYEEYGPEYIKEHKLGNTKYFED
B6: Ies2 (protein, UniProt P40154 1-320)
chain: MDSEASDIEAELSDSVSAGGEEYIDDDDYTEDIDDQIVTAKSSRRTARRSVPKGVRTSKRIRDKELSVEVDEDYDEEEDVLSPSKKRHLHTRSMDKRQVAATASEKSDIGDSKGNDGEIEDGILEEEESLEKELNRGGGKEVEKSEESYYAQNDVGQKGEEEQDGESGGYEDNEPSISKESDELVSVVNGNGNEEDDEVEATKENTTDSTRSTTTRSKMLLDLLEDGGSKKKLTDEEIQLRRAENARKRKNLSEKRLEEEKQDTINKLLKKRAGKSRSHLPNDDEKNDGSSSFVKPRRPYNSEGMTRILRRYEEDLFCTF
B7: Ies6 (protein, UniProt P32617 1-166)
chain: MSGSRGNSSNSSVSNNSNNNNNNDGGDERLLFLRSVGERNEIGFPSRFKSAHYKKPTRRHKSARQLISDENKRINALLTKANKAAESSTAARRLVPKATYFSVEAPPSIRPAKKYCDVTGLKGFYKSPTNNIRYHNAEIYQLIVKPMAPGVDQEYLKLRGANFVLK
B8: Ies3 (protein, UniProt Q12345 1-250)
chain: MKFEDLLATNKQVQFAHAATQHYKSVKTPDFLEKDPHHKKFHNADGLNQQGSSTPSTATDANAASTASTHTNTTTFKRHIVAVDDISKMNYEMIKNSPGNVITNANQDEIDISTLKTRLYKDNLYAMNDNFLQAVNDQIVTLNAAEQDQETEDPDLSDDEKIDILTKIQENLLEEYQKLSQKERKWFILKELLLDANVELDLFSNRGRKASHPIAFGAVAIPTNVNANSLAFNRTKRRKINKNGLLENIL

Protein sequences, listed by entry. Tags and fused reporters are not part of them. Lines headed by an entry give the natural chain unless they say otherwise; changes in a name come on top. Chains listed by the source or under a name are the forms on record and can include a tag or linker. Residues count along the entry.
UniProt P53115: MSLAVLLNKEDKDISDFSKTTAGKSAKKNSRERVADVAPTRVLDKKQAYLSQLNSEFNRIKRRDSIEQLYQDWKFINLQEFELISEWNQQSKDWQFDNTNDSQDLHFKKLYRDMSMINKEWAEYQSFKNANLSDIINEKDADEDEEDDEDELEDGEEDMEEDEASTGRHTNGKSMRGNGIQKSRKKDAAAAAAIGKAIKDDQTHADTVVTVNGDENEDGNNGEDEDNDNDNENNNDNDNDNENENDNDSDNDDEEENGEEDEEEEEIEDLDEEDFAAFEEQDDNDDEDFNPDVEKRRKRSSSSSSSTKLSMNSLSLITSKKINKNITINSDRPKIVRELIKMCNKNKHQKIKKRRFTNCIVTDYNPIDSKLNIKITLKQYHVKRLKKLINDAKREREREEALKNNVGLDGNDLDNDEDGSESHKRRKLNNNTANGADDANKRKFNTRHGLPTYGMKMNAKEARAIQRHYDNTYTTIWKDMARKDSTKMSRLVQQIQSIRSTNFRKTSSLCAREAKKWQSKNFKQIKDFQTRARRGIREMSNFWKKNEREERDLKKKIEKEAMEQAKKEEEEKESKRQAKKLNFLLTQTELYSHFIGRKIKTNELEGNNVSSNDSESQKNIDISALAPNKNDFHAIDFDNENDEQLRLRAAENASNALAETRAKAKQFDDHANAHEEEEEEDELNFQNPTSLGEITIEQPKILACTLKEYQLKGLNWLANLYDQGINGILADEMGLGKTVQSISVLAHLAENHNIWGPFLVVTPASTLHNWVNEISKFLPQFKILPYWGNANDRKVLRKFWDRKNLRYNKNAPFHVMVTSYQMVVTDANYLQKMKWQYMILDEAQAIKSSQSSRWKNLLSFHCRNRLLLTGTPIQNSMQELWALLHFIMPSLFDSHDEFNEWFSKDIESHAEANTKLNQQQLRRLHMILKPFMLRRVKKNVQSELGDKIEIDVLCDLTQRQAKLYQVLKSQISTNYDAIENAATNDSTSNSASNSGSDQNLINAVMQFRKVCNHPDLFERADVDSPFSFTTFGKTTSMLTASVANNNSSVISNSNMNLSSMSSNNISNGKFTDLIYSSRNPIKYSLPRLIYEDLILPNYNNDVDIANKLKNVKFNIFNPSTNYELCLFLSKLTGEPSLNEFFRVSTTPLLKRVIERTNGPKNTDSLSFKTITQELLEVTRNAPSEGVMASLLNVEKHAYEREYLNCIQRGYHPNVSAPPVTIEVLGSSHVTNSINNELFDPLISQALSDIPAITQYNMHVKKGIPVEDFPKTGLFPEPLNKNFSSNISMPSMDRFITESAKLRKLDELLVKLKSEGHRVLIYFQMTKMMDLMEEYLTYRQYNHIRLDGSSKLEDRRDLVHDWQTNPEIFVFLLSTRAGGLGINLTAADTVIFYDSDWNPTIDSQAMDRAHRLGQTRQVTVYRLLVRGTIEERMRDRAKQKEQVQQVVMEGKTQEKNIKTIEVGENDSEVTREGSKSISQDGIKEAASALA
Ino80ΔN, truncated form of the Ino80 subunit (residue 470 from 1490) with a C-terminal Twin-Strep tag: residues 470-1489 of P53115
UniProt P35189: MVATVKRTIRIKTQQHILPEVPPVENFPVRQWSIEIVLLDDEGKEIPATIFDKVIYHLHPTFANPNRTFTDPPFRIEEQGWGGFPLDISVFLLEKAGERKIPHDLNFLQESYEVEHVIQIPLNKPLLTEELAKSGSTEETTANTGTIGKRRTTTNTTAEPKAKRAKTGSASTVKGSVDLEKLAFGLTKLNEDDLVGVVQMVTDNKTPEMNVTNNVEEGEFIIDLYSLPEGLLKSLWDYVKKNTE

Results are given in words; binding and its absence hold for the method and conditions named. Some binding calls cover weakened binding; strength is not graded here.

One assay addresses Ino80 subunit with a C-terminal twin-strep tag (of the INO80-C full complex) (S. cerevisiae) (UniProt P53115). The experiment in a line: co-purification (Strep-Tactin affinity, then anion exchange; SDS-PAGE); subunits co-expressed in High Five cells; lysate in 400 mM NaCl buffer loaded on a Strep-XT column by the Twin-Strep tag on Ino80, washed at 250 mM NaCl, eluted with biotin, then HQ column with a salt gradient; fractions analysed by SDS-PAGE.
Turning to Taf14 (from UniProt P35189 1-244), the binding result is on record as “binds”.

For the molecule B1, the binding entry is recorded as “binds”.

As for B2, the binding result is “binds”.

As for B3, the binding entry is reported as “binds”.

In the case of B4, the binding entry is “binds”.

Regarding B5, the binding result was “binds”.

For B6, the binding entry is “binds”.

For B7, the binding result is given as “binds”.

Consider B8, for which the binding result is “binds”.

The target in a further assay is Ino80ΔN, truncated form of the Ino80 subunit (residue 470 from 1490) with a C-terminal Twin-Strep tag (S. cerevisiae) (UniProt P53115). The description is as above.
For B1, the binding entry is recorded as “binds”.

B5: the binding entry is given as “binds”.

Turning to B6, the binding entry is “binds”.

As to B7, the binding result is “binds”.

Source of the values: publication PMC10570696, “DNA-translocation-independent role of INO80 remodeler in DNA damage repairs” (The Journal of Biological Chemistry, 2023).
